Library screening results

Source: ChEMBL document CHEMBL3988442, “University of Dundee, Small-Polar-MMV Screening Library” (2021).

A: 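Whole-cell assay for inhibitors of Mycobacterium tuberculosis growth, labelled Cornell in the record; the read-out is not stated. The concentration is filed as 10 mM, unlikely as a test dose, so the dose is not known. Higher means stronger inhibition (inferred from two other growth screens of the library). Size under these conditions: about 53,000 compounds, about 900 of them at 50% or above in at least one test.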
B: 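Assay on Mycobacterium tuberculosis, filed only as a heat shock assay from Cornell; the read-out is not stated. The concentration is filed as 10 mM, unlikely as a test dose, so the dose is not known. The record gives no direction; compounds that gave an IC50 in retests scored well above the rest, so higher reads as stronger inhibition. Of about 69,000 compounds tested this way, about 930 (1.4%) reached 50% or more in at least one test.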

The filed quantity is “Percent Effect” (%).
The record does not define 0% and 100%; most values in the screen are far below 50% and negative numbers occur (in some assays of this library far below -100).
The compounds are a random part of those screened.
A dash means the value is not listed here; it may have been measured.

SMILES | A | B
CC1(C)Cc2ccccc2-c2nc(NCCO)[nH]c(=O)c21 | 36.11% | 28.49%
CC1CN(c2ccc(C#N)cn2)CCN1c1ccc2nncn2n1 (stereo not shown) | - | -28.62%
[H][C@]12CC[C@]([H])(CN(C(=O)N(C)C)C1)N(C(=O)CCc1n[nH]c(C)c1C)C2 | 7.86% | -2.064%
CC(Cn1cncn1)NC(=O)N1CC2(CCCC2)c2ccccc21 (stereo not shown) | 4.945% | -8.131%
COc1ccccc1CCC(=O)N1C[C@H](c2ccccc2)[C@@H](N)C1 | -10.11% | 11.38%
N#Cc1cnc2ccccc2c1N1CCC(C(=O)O)CC1 | 14.96% | 5.554%
O=C(NCC1CC1)C1CN(Cc2cccs2)Cc2ccnn2C1 (stereo not shown) | -18.01% | -29.5%
Cn1c(=O)[nH]c(=O)n2c(CC(=O)Nc3c(Cl)cccc3Cl)cnc12 | - | -8.8%
CN1CCN(C(=O)c2ccc3c(c2)nc(N2CCOCC2)n3C)CC1=O | -3.354% | 2.08%
CCCc1n[nH]c(=O)n1Cc1ccc(OC)cc1 | -36.97% | -32.4%
CC(C)[C@H]1CN(Cc2ccccn2)C[C@@H]1NS(=O)(=O)C1CC1 | 0.8319% | -5.775%
Cc1nc(C2(O)CCCNCC2)sc1CCOc1ccccc1Cl.Cl (stereo not shown) | -9.395% | -14.1%
[H][C@@]12CN(CCOC)C[C@]1([H])[C@H](OC)CCN2C(=O)CCc1ccccc1 | - | -33.34%
COC(CNC(=O)c1cn(C)nn1)c1ccccc1C (stereo not shown) | -12.18% | 9.53%
Cn1cccc(NC(=O)COc2ccc(Cl)cc2)c1=O | 28.79% | 6.388%
O=C(O)C(F)(F)F.[H][C@]12CCN(Cc3ccccc3)CC[C@@]1([H])S(=O)(=O)NC2 | 18.02% | -20.54%
COc1ccccc1N1CCN(C(=O)CCn2ccnc2C)CC1(C)C | 5.11% | -18.6%
Cn1cc(CN2CCOC3(CCCN(c4cccc(F)c4)C3)C2)cn1.O=C(O)C(F)(F)F.O=C(O)C(F)(F)F (stereo not shown) | -3.324% | 1.212%
CC(=O)N1CCc2cc(C(=O)O)c(-c3ccsc3)nc2CC1.O=C(O)C(F)(F)F | 18.76% | -20.72%
O=C(O)C(F)(F)F.O=C(O)C(F)(F)F.[H][C@@]12CCN(Cc3ccsc3)C[C@]1([H])[C@@H](CN1CCOCC1)OC2 | - | -14.32%
CC(=O)N1CCC(Oc2ccc(C#N)cc2)CC1 | -55.51% | -32.32%
COc1ccc(NC(=O)c2nc(C)sc2C(C)C)cn1 | 41.95% | -8.023%
Cc1cc(C)c2[nH]c(=O)c(CN3CCCC(O)(CO)C3)cc2c1 (stereo not shown) | 23.96% | 3.4%
NC(=O)c1cccc(CCNCc2cnc(-c3cccs3)s2)c1 | - | -9.204%
COCc1cccc(NC(C)C(=O)N(C)Cc2ccccc2)c1 (stereo not shown) | -13.61% | -9.259%
C[C@@H]1CN(C(=O)CCc2nncn2C)CC[C@@]1(O)C1CCC1 | 18.43% | 6.391%
[H][C@@]12CN(Cc3ccncc3)CC[C@]1([H])CN(c1cncnc1)C2 | -12.98% | 10.83%
CCC[C@@H]1CN(Cc2c[nH]nc2-c2ccc(F)cc2)C[C@H]1NS(C)(=O)=O | 17.79% | 9.933%
CCNC(=O)NC1CCN(c2ccc(S(=O)(=O)CC)cc2)CC1 | 10.62% | -18.09%
CC(=O)NCCC(=O)NC(C)c1sc(-c2ccccc2F)nc1C (stereo not shown) | -15.42% | -12.25%
O=C(c1ccccn1)N1CCC2(COc3ncccc3S(=O)(=O)N2)C1 (stereo not shown) | - | -14.82%
O=C(NCCc1ccc2c(c1)OCO2)C1CCCN(Cc2ccco2)C1 (stereo not shown) | 4.016% | -42.44%
CNS(=O)(=O)CC(=O)NC(C)Cc1ccc(-c2ccccc2)cc1 (stereo not shown) | 11.06% | -0.4533%
CN(C)C[C@H]1C[C@@H](CO)CN(C(=O)c2cc(=O)[nH]c3cc(F)ccc23)C1 | 28.9% | 7.783%
O=C(NCC1Cn2nnc(-c3ccncc3)c2CO1)c1ccc[nH]1 (stereo not shown) | 4.551% | -21.32%
Cc1n[nH]c(C)c1Sc1ccccc1NC(=O)N1CCOCC(O)C1 (stereo not shown) | 25.53% | 5.6%
O=C(NCCN1CCOCC1)c1ccn(-c2ccccc2F)n1 | -9.177% | -49.08%
CCc1ccc2nc(C)cc(C(=O)NC3CCCCNC3=O)c2c1 (stereo not shown) | - | -37.56%
COC(C)(C)CNC(=O)N1CCC(n2ccc(C(F)(F)F)n2)CC1 | 7.689% | 4.249%
Cc1nc2[nH]cnc(NCCN3CCOCC3)c-2n1 | 13.15% | -1.565%
O=C(O)C(F)(F)F.[H][C@@]12CCN(Cc3cccc(C)n3)[C@@]1([H])CCN2C(=O)c1cc(C)on1 | -12.21% | -16.64%
COc1ccc(CN2CCn3cc(CN4CCN(C)CC4)nc3C2)cc1.O=C(O)C(F)(F)F.O=C(O)C(F)(F)F.O=C(O)C(F)(F)F | 3.435% | 1.358%
COc1cc2c(cc1CNCc1ccnc(-n3cccn3)c1)OC(C)C2.Cl (stereo not shown) | - | -6.602%
O=C(NCC1CC1)Nc1cnc2ccc(F)cc2c1O | -14.54% | -20.07%
Cc1cc(Cl)ccc1C(=O)N1C[C@H](C2CC2)[C@@H](N)C1 | 13.92% | -15.98%
c1cnnc(N2CCCC(NCc3nc(-c4ccco4)no3)C2)c1 (stereo not shown) | - | -9.531%
Cc1cccc(CCC(=O)N2CCCC(c3cc(C(N)=O)[nH]n3)C2)c1 (stereo not shown) | -19.79% | -10.88%
CCOC(=O)NC(CNC(=O)c1cn(C)cn1)CC(C)C (stereo not shown) | - | 18.49%
COCCN1CC2(CCC1=O)CCN(Cc1cc(F)ccc1Cl)CC2 | -11.65% | -32.62%
COc1c(C(=O)N2CCOC(c3cccs3)C2)c(C)nn1C (stereo not shown) | 8.843% | -7.019%
O=C1CCOCCN1Cc1ccc(C(F)(F)F)c(F)c1 | -4.835% | -3.082%
COCCCn1ccc(NC(=O)NCc2cccc(N(C)C)c2)n1 | -11.1% | -5.716%
Cn1cc(CN2CCCC3(CCN(C(=O)c4ccoc4)C3)C2)cn1 (stereo not shown) | 2.404% | -1.846%
Cn1cc(C2CCCN2C(=O)c2ccc(NC3CC3)nc2)cn1 (stereo not shown) | - | -26.95%
Cc1nccn1-c1ccc(CNC(=O)c2ccc[nH]2)cn1 | - | 7.992%
[H][C@@]12OCCN(C(=O)C3CCOCC3)[C@@]1([H])CC[C@H]2OCC(=O)N(C)C | 13.2% | 16.65%
CCCc1nc(CN2CCCC(Cn3cncn3)C2)no1 (stereo not shown) | - | -9.9%
CNC(=O)CN1C(=O)CCC12CCCN(CCc1ccccc1)C2 (stereo not shown) | - | -15.76%
Nc1nc(C2CCN(C(=O)c3cncs3)CC2)cs1 | -1.013% | -13.83%
CCC(C(=O)NC1(C(N)=O)CCCC1)n1cccn1 (stereo not shown) | - | 5.265%
CC(c1nc(C(C)(C)C)no1)N1CCN(C(=O)CN2CCOCC2)CC1 (stereo not shown) | 8.353% | -0.7722%
Cc1cc(NCc2ccc(C#N)cc2)n2nc(C)cc2n1 | 14.35% | -9.847%
COCCOc1ccc(C(=O)N[C@@H]2CNCCC[C@H]2O)cc1 | - | -11.38%
CC(=O)NCCN1CCC(c2cccs2)CC1 | 5.988% | -13.42%
CCOCC(=O)N1CCC(CSCc2ccco2)CC1 | 34.18% | -1.36%

Repeated from the top, 6 entries:

With CC1(C)Cc2ccccc2-c2nc(NCCO)[nH]c(=O)c21 the screen gave A: 36.11%; B: 28.49%.
With CC1CN(c2ccc(C#N)cn2)CCN1c1ccc2nncn2n1 (stereo not shown) the screen gave B: -28.62%.
With [H][C@]12CC[C@]([H])(CN(C(=O)N(C)C)C1)N(C(=O)CCc1n[nH]c(C)c1C)C2 the screen gave A: 7.86%; B: -2.064%.
With CC(Cn1cncn1)NC(=O)N1CC2(CCCC2)c2ccccc21 (stereo not shown) the screen gave A: 4.945%; B: -8.131%.
With COc1ccccc1CCC(=O)N1C[C@H](c2ccccc2)[C@@H](N)C1 the screen gave A: -10.11%; B: 11.38%.
With N#Cc1cnc2ccccc2c1N1CCC(C(=O)O)CC1 the screen gave A: 14.96%; B: 5.554%.